This assay relates to BDF1 mice, P288 methotrexate-resistant leukemia, survival T/C. Description: NCI In Vivo Anticancer Drug Screen. Data for tumor model P288 Lymphocytic Leukemia resistant to methotrexate; NSC 740 (intraperitoneal) in B6D2F1 (BDF1) mice. Particulars: T/C endpoint: median survival time, schedule: Q01DX010 (ip), higher T/C = longer survival. The method, then: The antitumor activity of compounds was measured in mice bearing transplantable tumors. Survival or tumor size were measured and the results are expressed as the measurement made in the treated group (T) divided by the measurement made in the vehicle treated control group (C). The tumor model used in this assay is P288 Lymphocytic Leukemia resistant to methotrexate; NSC 740 (intraperitoneal) in B6D2F1 (BDF1) mice

Setting [1] is: dose: 400.0 mg/kg/injection, vehicle: saline.
The mark [2] stands for this setting: dose: 2.0 mg/kg/injection, vehicle: saline.
[3] abbreviates: dose: 4.0 mg/kg/injection, vehicle: saline.
The mark [4] stands for this setting: dose: 32.0 mg/kg/injection, vehicle: saline.
Setting [5] is: dose: 5.0 mg/kg/injection, vehicle: saline.
Setting [6] is: dose: 6.25 mg/kg/injection, vehicle: saline.
Where [7] appears, read: dose: 12.5 mg/kg/injection, vehicle: saline.
[8] abbreviates: dose: 25.0 mg/kg/injection, vehicle: saline.
Where [9] appears, read: dose: 50.0 mg/kg/injection, vehicle: saline.
[10] abbreviates: dose: 16.0 mg/kg/injection, vehicle: saline.
[11] abbreviates: dose: 10.0 mg/kg/injection, vehicle: saline.
[12] abbreviates: dose: 20.0 mg/kg/injection, vehicle: saline.
Setting [13] is: dose: 18.0 mg/kg/injection, vehicle: saline.
Setting [14] is: dose: 27.0 mg/kg/injection, vehicle: saline.
[15] abbreviates: dose: 40.0 mg/kg/injection, vehicle: saline.
[16] abbreviates: dose: 62.5 micrograms/kg/injection, vehicle: saline.
[17] abbreviates: dose: 100.0 mg/kg/injection, vehicle: saline.

The list shows only some results of the screen, not a fair sample: it gathers tests that were run many times, whatever their T/C, doses with no T/C, and many T/C values between a quarter and a half above the control. Other doses and runs of a compound stand elsewhere. T/C: endpoint of the treated group in % of that of the vehicle group. Some entries give survivors of the animals treated and no T/C: the source holds a T/C of zero for them, seemingly a mark for toxic or unscored doses. Some survivor counts are full or nearly so, which does not show that the dose was tolerated: the source hardly ever lists a survival T/C far under the control, and the zero likely stands for such cases as well. Counts of survivors are from the toxicity check (mostly the fifth day) where no day follows; animals may have died later. Schedule codes are those of the source, taken here to give the interval after Q, in days (D) or hours (H), and the number of doses after X. Some entries hold several experiments; their values stand side by side, smallest first. Where survival is the endpoint, the PubChem record calls one and a half times the control and up active, and a quarter to a half above the control has no call in these data; cut-offs in other NCI protocols can differ. Some T/C values carry the count of animals alive at the toxicity check (mostly the fifth day); where none is given, no animal had died by that day.

In the case of `CN(C)/N=N/c1nc[nH]c1C(N)=O`, the survivor count under setting [1] is on record as 5 of 8.
For `CC(CCC(C)OS(C)(=O)=O)OS(C)(=O)=O` (centres undefined), the survivor count was 6 of 6 under setting [2] and 6 of 6 under setting [3]. Under setting [4], the T/C was 127 % of control.
As for `CN(C)c1ccc(/C=C/c2ccnc3ccccc23)cc1`, under setting [5], the survivor count is 6 of 6.
On to `CCCNc1ncnc2[nH]ncc12`, for which the survivor count (dose: 3.13 mg/kg/injection, vehicle: saline) was 6 of 6; the survivor count under setting [6] is 0 of 6 and 4 of 6; the survivor count under setting [7] is reported as 0 of 6; the survivor count under setting [8] is recorded as 0 of 6.
For `CN(N=O)C(=O)NC(C=O)C(O)C(O)C(O)CO` (centres undefined), under setting [9], the T/C was 130 % of control.
Consider `CS(=O)(=O)OCCN(CCOS(C)(=O)=O)c1ccc(N=O)cc1`, for which the T/C (dose: 1.0 mg/kg/injection, vehicle: saline) was 129 % of control. Moreover, the survivor count was 4 of 6 and 6 of 6 under setting [2]; 5 of 6 under setting [3]; 1 of 6 (dose: 8.0 mg/kg/injection, vehicle: saline); 0 of 6 under setting [10].
For the molecule `N#[N+]c1cnc([O-])[nH]c1=O`, the T/C is 125 and 127 % of control under setting [5]; 133 and 145 % of control under setting [11]. Also, the survivor count under setting [12] is listed as 3 of 6.
For the molecule `CN(C)c1ccc(/C=C\c2ccnc3ccccc23)cc1`, the survivor count reads like this: under setting [13], 6 of 6; under setting [14], 6 of 6; under setting [15], 6 of 6; (dose: 60.0 mg/kg/injection, vehicle: saline) 6 of 6.
With `CC[C@]1(O)C[C@H]2CN(CCc3c([nH]c4ccccc34)[C@@](C(=O)OC)(c3cc4c(cc3OC)N(C=O)[C@H]3[C@@](O)(C(=O)OC)[C@H](OC(C)=O)[C@]5(CC)C=CCN6CC[C@]43[C@@H]65)C2)C1`, the T/C (dose: 0.06 mg/kg/injection, vehicle: saline) was 136 % of control. The survivor count runs as follows: (dose: 0.25 mg/kg/injection, vehicle: saline) 6 of 6; (dose: 0.5 mg/kg/injection, vehicle: saline) 6 of 6; under setting [5], 2 of 6.
As to `CCCCn1cnc2c(=S)nc[nH]c21`, the survivor count under setting [10] is on record as 6 of 6; the survivor count under setting [4] is recorded as 6 of 6; the survivor count (dose: 64.0 mg/kg/injection, vehicle: saline) was 6 of 6; the survivor count (dose: 128.0 mg/kg/injection, vehicle: saline) is 6 of 6.
Consider `O=C(Nc1ccc(NC2=NCCN2)cc1)c1ccc(C(=O)Nc2ccc(NC3=NCCN3)cc2)cc1`, for which, under setting [10], the T/C is 130 % of control.
For `CS(=O)(=O)OCCCCOS(C)(=O)=O`, the survivor count reads like this: under setting [6], 6 of 6; under setting [7], 6 of 6; under setting [8], 6 of 6; under setting [9], 6 of 6.
For `O[C@H](CN1CC1)[C@@H](O)CN1CC1`, the T/C is 145 % of control under setting [16]; 130 % of control (dose: 125.0 micrograms/kg/injection, vehicle: saline); 136 % of control (dose: 250.0 micrograms/kg/injection, vehicle: saline). The survivor count under setting [16] is 6 of 6.
`Cn1c(N)nc2nc[nH]c2c1=S`: the survivor count was 6 of 6 under setting [11]; 6 of 6 under setting [12]; 6 of 6 under setting [15]; 6 of 6 (dose: 80.0 mg/kg/injection, vehicle: saline).
Turning to `CCCCNc1ncnc2c1cnn2C`, the survivor count runs as follows: (dose: 15.6 mg/kg/injection, vehicle: saline) 6 of 6; (dose: 31.3 mg/kg/injection, vehicle: saline) 6 of 6; (dose: 125.0 mg/kg/injection, vehicle: saline) 4 of 6 and 5 of 6.
On to `CS(=O)(=O)OCC(O)C(O)COS(C)(=O)=O` (centres undefined), for which, under setting [17], the survivor count is on record as 6 of 6.
On to `Nc1nc2n[nH]nc2c(=O)[nH]1`, for which the T/C is, setting by setting: (dose: 50.0 mg/kg/injection, vehicle: alkali diluted with saline) 130 % of control; (dose: 100.0 mg/kg/injection, vehicle: alkali diluted with saline) 137 and 140 % of control; (dose: 200.0 mg/kg/injection, vehicle: alkali diluted with saline) 125 and 140 % of control [5 of 6 alive]; (dose: 400.0 mg/kg/injection, vehicle: alkali diluted with saline) 129 % of control [5 of 6 alive].
For the molecule `N=[N+]=CC(=O)OCC(N)C(=O)O` (centres undefined), the survivor count by setting is: under setting [8], 6 of 6; under setting [9], 1 of 6.
With `Oc1cc(CN(CCCl)CCCl)c(O)cc1CN(CCCl)CCCl`, the T/C (dose: 1.25 mg/kg/injection, vehicle: saline) is 131 % of control; the T/C (dose: 2.5 mg/kg/injection, vehicle: saline) was 131 and 142 % of control; the T/C under setting [5] is 145 % of control.
For `Nc1nc(N)c2nc(CNc3ccc(C(=O)NC(CCC(=O)O)C(=O)O)cc3)cnc2n1` (centres undefined), the survivor count (dose: 0.1 mg/kg/injection, vehicle: other) is 0 of 6.
As to `O=C(Nc1ccc(C2=NCCN2)cc1)c1ccc(C(=O)Nc2ccc(C3=NCCN3)cc2)c([N+](=O)[O-])c1`, the T/C (dose: 6.0 mg/kg/injection, vehicle: saline) is 135 % of control.
For the molecule `CC(=O)Nc1ccc2nc3ccc(NC(C)=O)cc3[n+](-c3ccccc3)c2c1`, the T/C is, setting by setting: under setting [9], 127 % of control; under setting [17], 125 and 131 % of control; (dose: 200.0 mg/kg/injection, vehicle: saline) 140 % of control; under setting [1], 125 % of control. Further, the survivor count under setting [1] was 6 of 6.
For `O=c1cnn(C2OC(CO)C(O)C2O)c(=O)[nH]1` (centres undefined), the survivor count (dose: 1600.0 mg/kg/injection, vehicle: saline) is given as 6 of 6.
Consider `C[n+]1c2ccccc2nc2c(N)cc(N)cc21`, for which the T/C is, setting by setting: (dose: 12.0 mg/kg/injection, vehicle: saline) 135 % of control [5 of 6 alive]; under setting [13], 145 % of control. For the same molecule, under setting [14], the survivor count is listed as 5 of 6.
For the molecule `CO[C@H](C(=O)[C@@H](O)[C@@H](C)O)[C@@H]1Cc2cc3cc(OC4CC(OC5CC(O)C(O)C(C)O5)C(O)C(C)O4)c(C)c(O)c3c(O)c2C(=O)[C@H]1OC1CC(OC2CC(OC3CC(C)(O)C(O)C(C)O3)C(O)C(C)O2)C(O)C(C)O1` (some centres undefined), the survivor count under setting [2] is 9 of 10.
Turning to `C[N+](C)(C)c1ncnc2nc[nH]c12`, the survivor count (dose: 240.0 mg/kg/injection, vehicle: saline) is 2 of 6.
As for `CS(=O)(=O)OCCCl`, the survivor count is recorded as 6 of 6 (dose: 18.8 mg/kg/injection, vehicle: saline) and 6 of 6 (dose: 37.5 mg/kg/injection, vehicle: saline).
As for `O=c1[nH]cc(F)c(=O)[nH]1`, the T/C is 131 % of control under setting [5]; 125 and 140 % of control under setting [11]; 133 % of control under setting [12].

Values taken from PubChem BioAssay AID204 (DTP/NCI, 2004).
